Here are results for one substance from PMC10689778.

The chains behind the UniProt entries cited, without tags or fusion partners. Where a name states a change or a piece, a line headed by the entry shows the natural chain unless it says otherwise. Residues count along the entry.
UniProt O75460: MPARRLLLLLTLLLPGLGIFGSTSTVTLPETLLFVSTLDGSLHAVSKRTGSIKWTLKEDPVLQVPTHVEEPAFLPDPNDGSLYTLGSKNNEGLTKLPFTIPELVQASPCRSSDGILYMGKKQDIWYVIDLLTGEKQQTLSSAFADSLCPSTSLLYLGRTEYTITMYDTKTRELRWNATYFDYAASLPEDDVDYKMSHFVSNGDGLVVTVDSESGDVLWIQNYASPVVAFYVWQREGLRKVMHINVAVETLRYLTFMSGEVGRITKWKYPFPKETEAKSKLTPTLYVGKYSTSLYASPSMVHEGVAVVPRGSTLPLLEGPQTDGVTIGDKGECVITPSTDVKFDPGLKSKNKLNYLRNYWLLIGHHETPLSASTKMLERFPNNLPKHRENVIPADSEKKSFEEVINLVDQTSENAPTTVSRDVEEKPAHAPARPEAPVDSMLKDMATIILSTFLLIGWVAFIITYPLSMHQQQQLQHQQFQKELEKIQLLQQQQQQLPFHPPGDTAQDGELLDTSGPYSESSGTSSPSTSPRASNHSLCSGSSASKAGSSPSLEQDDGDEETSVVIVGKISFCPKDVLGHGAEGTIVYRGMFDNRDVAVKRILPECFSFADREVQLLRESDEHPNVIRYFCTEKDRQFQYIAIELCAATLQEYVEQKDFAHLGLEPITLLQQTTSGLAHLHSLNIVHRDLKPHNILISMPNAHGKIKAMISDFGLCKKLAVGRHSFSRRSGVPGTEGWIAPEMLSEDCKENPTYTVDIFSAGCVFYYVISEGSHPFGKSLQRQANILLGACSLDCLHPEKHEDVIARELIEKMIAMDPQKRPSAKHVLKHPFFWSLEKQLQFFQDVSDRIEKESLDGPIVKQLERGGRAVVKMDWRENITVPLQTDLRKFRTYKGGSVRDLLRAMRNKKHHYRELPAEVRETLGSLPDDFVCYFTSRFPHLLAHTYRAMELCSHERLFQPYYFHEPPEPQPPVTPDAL
IRE1α (as used in the co-immunoprecipitation): residues 19-977 of O75460
IRE1α kinase domain (524 aa-827 aa): residues 524-827 of O75460
IRE1α RNase domain (828 aa-977 aa): residues 828-977 of O75460
UniProt P28799, residues 18-593: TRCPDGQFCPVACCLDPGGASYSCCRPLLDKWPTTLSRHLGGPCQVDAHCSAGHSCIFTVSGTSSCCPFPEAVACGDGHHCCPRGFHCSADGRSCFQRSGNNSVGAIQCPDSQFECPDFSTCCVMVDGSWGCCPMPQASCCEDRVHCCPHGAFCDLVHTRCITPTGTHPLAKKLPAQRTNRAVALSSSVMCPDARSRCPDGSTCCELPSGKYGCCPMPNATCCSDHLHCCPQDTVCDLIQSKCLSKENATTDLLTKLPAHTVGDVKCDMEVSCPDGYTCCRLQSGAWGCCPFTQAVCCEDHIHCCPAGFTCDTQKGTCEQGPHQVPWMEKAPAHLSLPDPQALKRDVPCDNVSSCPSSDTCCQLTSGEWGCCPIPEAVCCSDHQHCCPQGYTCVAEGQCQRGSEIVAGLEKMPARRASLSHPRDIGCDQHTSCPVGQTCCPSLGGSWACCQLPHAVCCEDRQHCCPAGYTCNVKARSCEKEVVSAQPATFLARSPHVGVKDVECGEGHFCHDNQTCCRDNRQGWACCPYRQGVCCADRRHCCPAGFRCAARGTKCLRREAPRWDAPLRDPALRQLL

Assay in all cases: co-IP; cells lysed with cold IP-lysis buffer (50 mM Tris-HCl, 150 mM NaCl, 2 mM EDTA, 0.5% NP40, pH 7.5) with 1 mM PMSF for 30 min; as described in ref. 16
Test [1] addresses IRE1α RNase domain (828 aa-977 aa) (human) (UniProt O75460).
Test [2] concerns the target phosphorylated IRE1α (p-IRE1α) (human) (UniProt O75460).
Test [3] addresses IRE1α kinase domain (524 aa-827 aa) (human) (UniProt O75460).
Test [4] deals with IRE1α (as used in the co-immunoprecipitation) (human) (UniProt O75460).

These are yes or no findings as the source states them, for the method shown. Binding seen in cells or lysates may run through a third protein. Some entries that bind do so weakly or less than the wild type.

Take “progranulin (PGRN) (as used in the co-immunoprecipitations) (from UniProt P28799 18-593)”: the binding result in test [1] is on record as “no binding”; in test [2], “binds”; in test [3], “binds”; in test [4], “binds”.
